No constants are given. Whether binding was seen depends on the method and setting. In cells and extracts the contact can be indirect. Some binding calls cover weakened binding; strength is not graded here.
Biological target: Bax (human (endogenous in A549 and H1299)) (UniProt Q07812)
Assay: co-IP; endogenous Bax immunoprecipitated with anti-Bax antibody coupled to Dynabeads M-270 Epoxy from A549 or H1299 cell lysates, rotated at 4 °C for 2 h; western blotting; also from USP30 knock-down H1299 cells (binding decreased)

By UniProt entry, the sequences of proteins in these tests, tags left out.
UniProt Q07812: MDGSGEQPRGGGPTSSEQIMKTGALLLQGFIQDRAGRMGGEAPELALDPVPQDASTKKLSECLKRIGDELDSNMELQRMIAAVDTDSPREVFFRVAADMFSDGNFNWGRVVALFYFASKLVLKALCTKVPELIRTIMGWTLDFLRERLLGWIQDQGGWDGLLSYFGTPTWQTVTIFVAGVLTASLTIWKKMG
UniProt Q70CQ3: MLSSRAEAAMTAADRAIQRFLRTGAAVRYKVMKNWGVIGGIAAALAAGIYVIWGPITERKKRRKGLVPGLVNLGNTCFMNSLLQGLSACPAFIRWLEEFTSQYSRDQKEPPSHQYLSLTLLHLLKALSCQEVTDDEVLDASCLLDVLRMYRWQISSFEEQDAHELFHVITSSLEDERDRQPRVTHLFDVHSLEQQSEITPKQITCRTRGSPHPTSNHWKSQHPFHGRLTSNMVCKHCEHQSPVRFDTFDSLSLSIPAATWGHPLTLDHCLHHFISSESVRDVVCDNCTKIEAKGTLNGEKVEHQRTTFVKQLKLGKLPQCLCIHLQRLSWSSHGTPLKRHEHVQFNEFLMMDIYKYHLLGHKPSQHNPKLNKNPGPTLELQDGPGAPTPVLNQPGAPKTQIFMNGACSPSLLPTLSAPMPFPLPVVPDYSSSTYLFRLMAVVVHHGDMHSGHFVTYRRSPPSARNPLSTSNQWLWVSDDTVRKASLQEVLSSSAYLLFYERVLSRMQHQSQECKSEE

binding: binds
Substance: USP30 (from UniProt Q70CQ3 1-517) (enzyme)

Source: PMC8357812
